Data: publication PMC4472268
Results are given in words; binding and its absence hold for the method and conditions named. Binding seen in cells or lysates may run through a third protein. These calls come from enrichment with a bait or labelling near it, and not all partners need be listed. Sequences can lack the tags named with a protein.

The chains behind the UniProt entries cited, without tags or fusion partners.
UniProt O00410: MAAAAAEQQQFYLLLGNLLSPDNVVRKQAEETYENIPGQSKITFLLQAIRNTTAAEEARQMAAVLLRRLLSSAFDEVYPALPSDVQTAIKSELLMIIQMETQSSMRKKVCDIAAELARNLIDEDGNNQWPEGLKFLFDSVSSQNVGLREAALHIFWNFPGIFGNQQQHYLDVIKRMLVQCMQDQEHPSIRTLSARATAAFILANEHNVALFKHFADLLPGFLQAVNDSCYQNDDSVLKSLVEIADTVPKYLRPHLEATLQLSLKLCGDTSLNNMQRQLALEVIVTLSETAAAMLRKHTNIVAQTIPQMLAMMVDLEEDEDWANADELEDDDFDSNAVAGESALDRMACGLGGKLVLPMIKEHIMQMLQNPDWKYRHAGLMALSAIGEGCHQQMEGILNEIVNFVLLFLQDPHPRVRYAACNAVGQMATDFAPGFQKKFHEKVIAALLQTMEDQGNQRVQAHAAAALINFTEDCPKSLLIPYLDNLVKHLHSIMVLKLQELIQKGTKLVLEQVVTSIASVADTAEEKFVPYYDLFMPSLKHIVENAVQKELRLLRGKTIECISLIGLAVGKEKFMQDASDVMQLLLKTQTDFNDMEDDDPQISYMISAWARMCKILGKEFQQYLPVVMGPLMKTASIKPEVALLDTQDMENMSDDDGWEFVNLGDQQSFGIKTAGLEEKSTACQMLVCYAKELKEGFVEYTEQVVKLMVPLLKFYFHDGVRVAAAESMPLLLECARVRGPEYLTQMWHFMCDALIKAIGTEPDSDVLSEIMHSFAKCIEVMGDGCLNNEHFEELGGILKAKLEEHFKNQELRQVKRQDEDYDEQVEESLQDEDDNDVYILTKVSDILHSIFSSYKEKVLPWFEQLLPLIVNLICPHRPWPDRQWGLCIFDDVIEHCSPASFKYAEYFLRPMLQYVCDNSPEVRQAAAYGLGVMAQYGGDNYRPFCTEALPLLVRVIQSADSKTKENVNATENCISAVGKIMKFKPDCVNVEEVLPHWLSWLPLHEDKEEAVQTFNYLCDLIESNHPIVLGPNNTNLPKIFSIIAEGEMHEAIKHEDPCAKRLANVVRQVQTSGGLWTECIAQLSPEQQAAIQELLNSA
UniProt O15397: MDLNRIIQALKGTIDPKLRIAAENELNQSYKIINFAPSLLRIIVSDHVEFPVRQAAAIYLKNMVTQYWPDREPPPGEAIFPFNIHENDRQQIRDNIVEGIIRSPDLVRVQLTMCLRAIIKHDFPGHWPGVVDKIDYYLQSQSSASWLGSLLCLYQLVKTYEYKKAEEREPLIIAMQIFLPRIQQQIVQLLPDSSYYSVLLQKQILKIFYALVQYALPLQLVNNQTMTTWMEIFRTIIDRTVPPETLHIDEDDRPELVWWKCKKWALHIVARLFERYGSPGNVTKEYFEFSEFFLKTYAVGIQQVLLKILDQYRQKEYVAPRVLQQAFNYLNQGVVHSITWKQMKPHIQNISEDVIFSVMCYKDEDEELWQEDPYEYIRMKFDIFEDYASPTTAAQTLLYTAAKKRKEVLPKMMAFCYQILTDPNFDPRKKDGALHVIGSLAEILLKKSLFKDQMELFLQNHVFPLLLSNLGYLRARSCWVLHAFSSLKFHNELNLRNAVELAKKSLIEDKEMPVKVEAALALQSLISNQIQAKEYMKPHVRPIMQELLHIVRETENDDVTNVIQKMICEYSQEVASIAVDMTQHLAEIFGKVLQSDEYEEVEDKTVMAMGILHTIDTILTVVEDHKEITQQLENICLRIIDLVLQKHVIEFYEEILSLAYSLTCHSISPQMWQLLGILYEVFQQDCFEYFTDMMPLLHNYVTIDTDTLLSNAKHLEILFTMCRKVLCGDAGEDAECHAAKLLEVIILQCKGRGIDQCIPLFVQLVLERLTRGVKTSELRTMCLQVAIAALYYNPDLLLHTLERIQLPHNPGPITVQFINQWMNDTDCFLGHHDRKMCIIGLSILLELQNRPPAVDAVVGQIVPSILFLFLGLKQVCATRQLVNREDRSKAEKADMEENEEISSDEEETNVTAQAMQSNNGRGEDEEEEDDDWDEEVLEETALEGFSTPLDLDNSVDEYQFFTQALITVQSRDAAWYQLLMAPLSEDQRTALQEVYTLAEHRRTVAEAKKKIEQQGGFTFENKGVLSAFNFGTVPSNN

Molecular target: T1, FLAG-tagged hPPIP5K2 (human) (UniProt O43314)
T1 sequence: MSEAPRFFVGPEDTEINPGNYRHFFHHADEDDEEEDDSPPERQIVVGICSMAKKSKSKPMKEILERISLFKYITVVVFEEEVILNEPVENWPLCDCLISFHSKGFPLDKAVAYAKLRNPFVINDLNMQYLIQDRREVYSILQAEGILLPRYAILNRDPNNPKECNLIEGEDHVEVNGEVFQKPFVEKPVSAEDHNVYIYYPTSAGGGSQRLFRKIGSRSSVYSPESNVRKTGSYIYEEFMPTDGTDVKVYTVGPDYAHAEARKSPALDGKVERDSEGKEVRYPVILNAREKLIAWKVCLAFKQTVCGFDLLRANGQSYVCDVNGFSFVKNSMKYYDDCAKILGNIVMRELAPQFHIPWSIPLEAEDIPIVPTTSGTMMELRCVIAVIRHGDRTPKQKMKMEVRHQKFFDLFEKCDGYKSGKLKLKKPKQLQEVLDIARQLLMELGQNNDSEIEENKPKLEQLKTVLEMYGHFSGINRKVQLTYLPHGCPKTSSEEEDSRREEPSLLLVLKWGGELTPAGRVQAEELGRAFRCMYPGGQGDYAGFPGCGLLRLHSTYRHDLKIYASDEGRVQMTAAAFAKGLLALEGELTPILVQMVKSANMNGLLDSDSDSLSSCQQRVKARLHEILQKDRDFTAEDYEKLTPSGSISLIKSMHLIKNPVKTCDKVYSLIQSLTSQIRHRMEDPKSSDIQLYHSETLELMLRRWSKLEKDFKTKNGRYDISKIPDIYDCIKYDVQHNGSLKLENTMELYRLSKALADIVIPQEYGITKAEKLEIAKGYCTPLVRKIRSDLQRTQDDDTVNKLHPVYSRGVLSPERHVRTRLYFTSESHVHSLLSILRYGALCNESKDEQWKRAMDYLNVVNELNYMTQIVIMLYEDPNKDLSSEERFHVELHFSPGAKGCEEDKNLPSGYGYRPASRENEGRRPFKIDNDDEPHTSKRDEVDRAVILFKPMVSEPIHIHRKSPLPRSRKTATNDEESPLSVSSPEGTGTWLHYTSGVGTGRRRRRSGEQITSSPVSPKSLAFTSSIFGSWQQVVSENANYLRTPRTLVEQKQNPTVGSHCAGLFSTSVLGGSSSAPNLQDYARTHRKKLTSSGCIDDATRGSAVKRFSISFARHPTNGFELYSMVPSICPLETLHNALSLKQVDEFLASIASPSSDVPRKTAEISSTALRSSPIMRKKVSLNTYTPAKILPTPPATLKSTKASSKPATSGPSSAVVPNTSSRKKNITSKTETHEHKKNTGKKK
Experiment: affinity purification with mass spectrometry; lysates of stable HEK293T lines (50 mM HEPES pH 7.8, 300 mM NaCl, 1.0% NP-40) incubated 90 min at 0-4 °C with ANTI-FLAG M2 affinity gel, washed with TBS, eluted with 0.1 M glycine-HCl pH 3.5, SDS-PAGE lanes cut in 24 sections, nanoLC-ESI-MS/MS; subtractive against the FLAG-β-galactosidase control

With Importin-5 (from UniProt O00410 1-1097) the binding was “binds”.
Importin-8 (from UniProt O15397 1-1037) was tested, and the binding was “binds”.
